From article PMC7819943, “Rice protein-binding microarrays: a tool to detect cis-acting elements near promoter regions in rice” come the findings set out here.

Protein sequences, listed by entry. Tags and fused reporters are not part of them.
UniProt Q0JBA9, entry or part of it: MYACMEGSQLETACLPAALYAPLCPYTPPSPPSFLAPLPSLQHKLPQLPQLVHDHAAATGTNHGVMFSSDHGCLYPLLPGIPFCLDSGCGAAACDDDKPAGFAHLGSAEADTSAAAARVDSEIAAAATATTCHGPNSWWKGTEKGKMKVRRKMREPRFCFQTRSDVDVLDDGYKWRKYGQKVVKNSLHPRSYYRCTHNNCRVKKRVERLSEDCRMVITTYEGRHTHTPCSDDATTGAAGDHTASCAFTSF

Some of the results follow.

The test addresses OsWRKY34 (Oryza sativa, UniProt Q0JBA9 1-250). As to the kind of experiment: protein-binding microarray (RPBM); PBS, 2% BSA, 51.3 ng/ul salmon testes DNA, 50 uM zinc acetate, 200 nM TF, 25 C, 1 h; high values mean tight binding. The conditions noted are these: protein: recombinant; tags: N-terminal polyhistidine and DsRed monomer fusion (pET32a); label: CyDye5-dUTP incorporated in the synthesized complementary strand; 3' TTTTT single-stranded linker to array surface; dsDNA, one strand shown. The method, boiled down: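 The binding signal is fluorescence intensity per array feature (arbitrary units). Readings came from an Axon 4000B scanner after a washed, 2% BSA-blocked, double-stranded custom Agilent array had been incubated for 1 h at 25 °C with 200 nM protein and 50 µM zinc acetate. The protein was a Ni–NTA-purified transcription factor fused N-terminally to polyhistidine and DsRed, expressed in E. coli BL21-CodonPlus.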
As to “ATGATGATTGGTTGGTTACGGGCATGTTCAGATTGTAGCCCGGAGTCACCTAGTGCAG”, the binding signal is 9600 fluorescence intensity (a.u.).

Consider “ATCTCATACTTCATCAGTGAATAATTTCATGAGTATTGTTCGGAGTCACCTAGTGCAG”, for which the binding signal was 8510 fluorescence intensity (a.u.).

As to “AATAAGCAACCCAGTCTTACACGCGACACGGCATATGCACCGGAGTCACCTAGTGCAG”, the binding signal was 9670 fluorescence intensity (a.u.).

As for “CGCTTACCACTCTCCTCTAGCCGCCGGCGCCTCCGCCGCGCGGAGTCACCTAGTGCAG”, the binding signal was 11100 fluorescence intensity (a.u.).

As to “AACTTGCTCTAATGATTTCCTCAAGTTGTTTAATTTTTGACGGAGTCACCTAGTGCAG”, the binding signal is 9010 fluorescence intensity (a.u.).

As to “AGCATTTAACTATTTACCACTCATAGTCTATACCCTTCTCCGGAGTCACCTAGTGCAG”, the binding signal is 9170 fluorescence intensity (a.u.).

Consider “CGCACCGCCGGACCAGCGCCGCCATCCCAAATCGCAAACACGGAGTCACCTAGTGCAG”, for which the binding signal is 8650 fluorescence intensity (a.u.).

With “GGCCCATTTTGCCACCAGGATCCCTAGTTCTCTAGTCCCTCGGAGTCACCTAGTGCAG”, the binding signal was 9600 fluorescence intensity (a.u.).

“ACGAGAAGTTGCAGAACTAGTTTGTTTTCACGATACCATGCGGAGTCACCTAGTGCAG”: the binding signal is 8360 fluorescence intensity (a.u.).

With “TTGCAATGCGTGCACCATGTCGGATCGATACCACCTTTGACGGAGTCACCTAGTGCAG”, the binding signal was 8090 fluorescence intensity (a.u.).

“TGAGCCGTGGGCAAAGCTCAACCTGTAATTCAGTTTCTTGCGGAGTCACCTAGTGCAG”: the binding signal is 8100 fluorescence intensity (a.u.).

Consider “AGGTTGTTATATTTTTGGACTGATGGGGTATATTACTAACCGGAGTCACCTAGTGCAG”, for which the binding signal was 8180 fluorescence intensity (a.u.).

With “GACTCCGCCGGCCCACTCGCTCACTGCGCCGCCGCTCATCCGGAGTCACCTAGTGCAG”, the binding signal was 10400 fluorescence intensity (a.u.).

As for “CCGACCTCCCCGCCAATTTTTCCGCCTGTTTTAGTTTTCCCGGAGTCACCTAGTGCAG”, the binding signal is 8030 fluorescence intensity (a.u.).

“CTTGTCACCATTGCATCATGCTATCTTAGCTCTTGCTAAACGGAGTCACCTAGTGCAG”: the binding signal was 11200 fluorescence intensity (a.u.).

For “TCCACACTACTACAGTCCACAGCATCTCCATTCCCATCTCCGGAGTCACCTAGTGCAG”, the binding signal is 8950 fluorescence intensity (a.u.).

Turning to “GCCCGTCCACCTCCCCGTCGATTGGTTGGTCTTAATGGCTCGGAGTCACCTAGTGCAG”, the binding signal is 10800 fluorescence intensity (a.u.).

As for “TTTGCATTGTCGTTTGCCGTGTTAGTTTAGTGAGCAGATTCGGAGTCACCTAGTGCAG”, the binding signal was 8940 fluorescence intensity (a.u.).

Turning to “GTTCTTACCTGTCCGAGCTGTGTTCTCCTTCTACCGTTCTCGGAGTCACCTAGTGCAG”, the binding signal is 9210 fluorescence intensity (a.u.).

On to “CCTCACCTCCACGTGGGCCCCACCTAACCTGGACCCCACACGGAGTCACCTAGTGCAG”, for which the binding signal was 8460 fluorescence intensity (a.u.).

As to “CCGCCGAGCAGCTAGCACCGGAGTGTTGGGAGGGGAGGCTCGGAGTCACCTAGTGCAG”, the binding signal was 8500 fluorescence intensity (a.u.).

With “ACCTTAGCCAGTTAGCCTCTGCCGCCGCGACCGACCGCGACGGAGTCACCTAGTGCAG”, the binding signal was 9350 fluorescence intensity (a.u.).

Consider “ACATGATGCTTAGGGGCTGGTCAGATTGATACCATTTTTACGGAGTCACCTAGTGCAG”, for which the binding signal was 8500 fluorescence intensity (a.u.).

For “ACTCACACTAGCTTGAAACTATCTGCGTACTCAAATTCAACGGAGTCACCTAGTGCAG”, the binding signal is 8080 fluorescence intensity (a.u.).

As to “GGTTCTTTGTTTCCGTTTGCTTTACCATTTTTGTTCCTTTCGGAGTCACCTAGTGCAG”, the binding signal is 10000 fluorescence intensity (a.u.).

For the sequence “ACCTCGACGCCTCGCCTGCGGCCGCCTCCGCCTTGCCCGCCGGAGTCACCTAGTGCAG”, the binding signal was 9580 fluorescence intensity (a.u.).

Take “CCCACAAATGCCGTTGTTGTACTTCTGACTGGGGAGAGGACGGAGTCACCTAGTGCAG”: the binding signal is 9060 fluorescence intensity (a.u.).

Turning to “TATCGATCTATATAAACCACATTCCTGGCCTGCTTTTTCTCGGAGTCACCTAGTGCAG”, the binding signal was 8380 fluorescence intensity (a.u.).

For the sequence “CCGCTACCTCCGCCGTCGCCGTCCTCGCCGCTCCCGCGCCCGGAGTCACCTAGTGCAG”, the binding signal is 9080 fluorescence intensity (a.u.).

As to “CGCCCGCTTGTCTTGTCTGACTTCTTGTTGCCTCTTGCCTCGGAGTCACCTAGTGCAG”, the binding signal was 13100 fluorescence intensity (a.u.).

Consider “CACTCCACAGCCATCATCGCGCTCGCACCCGCGAAAACGCCGGAGTCACCTAGTGCAG”, for which the binding signal was 8160 fluorescence intensity (a.u.).

As for “GCTCAAATCTTAGCTCTAACCACGCGGCCCAACCTGGAATCGGAGTCACCTAGTGCAG”, the binding signal is 8160 fluorescence intensity (a.u.).

As to “GCAACCATAATTTATTGCCCTGCACAGTTGCATTAACTTCCGGAGTCACCTAGTGCAG”, the binding signal was 8300 fluorescence intensity (a.u.).

Consider “GACTTTTCTTCCTAGATAGGATCATTTTCATACTTTATTGCGGAGTCACCTAGTGCAG”, for which the binding signal is 9130 fluorescence intensity (a.u.).

As for “TTTTTGTTTTGGGCTTTTATTGTATCCAATGGGTCATGAACGGAGTCACCTAGTGCAG”, the binding signal was 8830 fluorescence intensity (a.u.).

For the sequence “GATTGCGGCGCGGCGCGGGAGGGGATTTGTTCGTGGATCGCGGAGTCACCTAGTGCAG”, the binding signal was 8640 fluorescence intensity (a.u.).

As to “TAGATATCTGACCATTAATGTACTTGCTTTCTACACCAAACGGAGTCACCTAGTGCAG”, the binding signal was 8370 fluorescence intensity (a.u.).

With “ATTTCTTAAAAGCTTTTCTTACATACATTTTAATAATCTTCGGAGTCACCTAGTGCAG”, the binding signal was 9200 fluorescence intensity (a.u.).

As to “TCATCTTCCCCGAGCTGGACCCCACCGCCACGTCAGCCAGCGGAGTCACCTAGTGCAG”, the binding signal was 8230 fluorescence intensity (a.u.).

“TTATGGTTTTTCCTTTTATTGTACTTTATCTTATAACATTCGGAGTCACCTAGTGCAG”: the binding signal was 9900 fluorescence intensity (a.u.).

For the sequence “TCTCCTTATACACTCATCATCCTTGTATAGACTTAAAAAGCGGAGTCACCTAGTGCAG”, the binding signal is 8070 fluorescence intensity (a.u.).

Turning to “AGTATAAGCATGTGTGGGTTGGGATCGTATTGATATCAAACGGAGTCACCTAGTGCAG”, the binding signal is 13800 fluorescence intensity (a.u.).

Consider “CCGTCTCGTCTCGTCTCGTCTCCCACCTCGCACCATTCCTCGGAGTCACCTAGTGCAG”, for which the binding signal is 10800 fluorescence intensity (a.u.).

On to “GAAAATGATCTCCTATTTTTATGCAGTGGTATTATTTACACGGAGTCACCTAGTGCAG”, for which the binding signal was 9040 fluorescence intensity (a.u.).

For “ACTTTTGTCTGGATGTTGCTTGCGTTCGTTCGTTCGTTAACGGAGTCACCTAGTGCAG”, the binding signal was 13400 fluorescence intensity (a.u.).

Turning to “ATCTGTACAGTTTGTGACTAATTTGCAAGACGAATCTTTTCGGAGTCACCTAGTGCAG”, the binding signal was 11500 fluorescence intensity (a.u.).

As to “TGCAAAGTGATCGATCGAGAGTTTGTCTTCACGTCCTTTTCGGAGTCACCTAGTGCAG”, the binding signal is 8120 fluorescence intensity (a.u.).

Regarding “GTGAACTTACTCCTTATCTTTTCAGTTCTTGTTCCAATTCCGGAGTCACCTAGTGCAG”, the binding signal was 9900 fluorescence intensity (a.u.).

“CAACGAGCCAACGACGTCCACTATCTTGACCTCATCCCGTCGGAGTCACCTAGTGCAG”: the binding signal was 8580 fluorescence intensity (a.u.).

Regarding “ATTTTCTCAGCTCAAGTTGCTTGCTCCTCTTCTTTCTTTCCGGAGTCACCTAGTGCAG”, the binding signal was 10200 fluorescence intensity (a.u.).

Take “TGCTACTAAATCCGCTGCTCTTTTTTTGGTACCAACAATTCGGAGTCACCTAGTGCAG”: the binding signal is 9200 fluorescence intensity (a.u.).

As for “GTTCTTTTGGGCAATCTCGTCTGTATTCCTTTGTCGTCTACGGAGTCACCTAGTGCAG”, the binding signal is 10800 fluorescence intensity (a.u.).

On to “AATTAGCTTGTTGTTTGCTTTGTGGTCGACATGGATGAATCGGAGTCACCTAGTGCAG”, for which the binding signal was 10700 fluorescence intensity (a.u.).

Take “GGGGTTTTTCTTATGTTAGTATATGTGTGGGATGTGTGAACGGAGTCACCTAGTGCAG”: the binding signal was 16800 fluorescence intensity (a.u.).
